According to patent US20240228973A9, “NON-ALCOHOLIC FATTY LIVER ARTIFICIAL TISSUE MODEL” (CELLARTGEN INC., priority 2021, published 2024):
At least one compound was matched to its structure with a doubt left.

Tested on: human tissue-derived non-alcoholic steatohepatitis (NASH) liver organoids
Assay: Drug efficacy evaluation in human tissue-derived NASH liver organoids co-cultured with EC, KC and HSC in LEM-Chip
Assay type: cell-based
Source text: (§1) Steatohepatitis (NASH) was induced in liver organoids in which a liver tissue microenvironment [vascular endothelial cells (E)+Kupffer cells (K)+hepatic stellate cells (S)] was constructed under culture conditions in which the decellularized liver tissue-derived LEM scaffold and the multiwell microfluidic device were combined, followed by treatment with obeticholic acid (OCA) at different concentrations. OCA (Obeticholic acid) is a semi-synthetic bile acid analogue that has conventionally been used to treat cholangitis and is a drug candidate whose efficacy has recently been verified in non-alcoholic steatohepatitis clinical trials. The NASH group was treated with 800 μM fatty acid for 3 days to induce a disease, and the NASH+OCA group was treated with 800 μM fatty acid and the corresponding drug for 3 days at different concentrations.
as §1, with “ezetimibe (Eze)” for “obeticholic acid (OCA)”, “Eze (Ezetimibe)” for “OCA (Obeticholic acid)”, “cholesterol absorption inhibitor and is a drug candidate” for “semi-synthetic bile acid analogue”, “hyperglycemic cholesterol” for “cholangitis”, “lipid abnormalities.” for “is a drug candidate whose efficacy has recently been verified in non-alcoholic steatohepatitis clinical trials.”, “NASH+Eze” for “NASH+OCA”
as §1, with “dapagliflozin (DAPA)” for “obeticholic acid (OCA)”, “DAPA (Dapagliflozin)” for “OCA (Obeticholic acid)”, “sodium-glucose transporter inhibitor and is a drug candidate” for “semi-synthetic bile acid analogue”, “diabetes.” for “cholangitis and is a drug candidate whose efficacy has recently been verified in non-alcoholic steatohepatitis clinical trials.”, “NASH+DAPA” for “NASH+OCA”

[1] = 800 μM fatty acid + drug for 3 days at different concentrations

Compound: CC[C@H]1[C@@H](O)[C@@H]2[C@H](CC[C@]3(C)[C@@H]([C@H](C)CCC(=O)O)CC[C@@H]23)[C@@]2(C)CC[C@@H](O)C[C@@H]12 [OCA, obeticholic acid]
- amount of fat accumulation [1]: reduced as the concentration increased
- morphology and structure of the organoid [1]: recovered
- expression of the fibrosis-related marker, quantitative PCR (drug concentration of 100 μM): further increased
- expression of the inflammation marker, quantitative PCR (drug concentration of 100 μM): further increased
- expression of fibrosis-related marker (SMA), quantitative PCR (vs NASH group, 3 days): decreased
- expression of inflammation-related marker (TNFα), quantitative PCR (vs NASH group, 3 days): decreased
